# Measured values reported in PubChem BioAssay AID504847 (National Center for Advancing Translational Sciences (NCATS), 2011).
# By UniProt entry, the sequences of proteins in these tests, tags left out. Where a name states a change or a piece, a line headed by the entry shows the natural chain unless it says otherwise.
# UniProt P11473: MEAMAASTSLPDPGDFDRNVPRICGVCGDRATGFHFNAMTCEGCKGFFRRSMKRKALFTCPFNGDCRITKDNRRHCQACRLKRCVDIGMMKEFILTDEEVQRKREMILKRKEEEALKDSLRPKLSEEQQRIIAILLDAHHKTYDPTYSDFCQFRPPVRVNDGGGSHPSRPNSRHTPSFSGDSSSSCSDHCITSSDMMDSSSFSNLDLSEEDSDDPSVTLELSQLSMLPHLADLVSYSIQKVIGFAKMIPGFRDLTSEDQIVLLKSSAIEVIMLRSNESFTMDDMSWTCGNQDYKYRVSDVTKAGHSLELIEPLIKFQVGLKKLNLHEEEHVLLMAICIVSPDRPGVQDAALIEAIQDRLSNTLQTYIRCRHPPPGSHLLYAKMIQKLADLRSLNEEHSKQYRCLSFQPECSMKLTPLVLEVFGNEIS
# Values joined by “and” are separate entries in the source; they are usually repeats but may differ in a detail not shown here. Equal entries are not always repeated. Out of some 400,000 compounds screened, about 3,700 (0.93%) were called active. The shares of active, inactive and inconclusive entries below differ from those in the screen. Calls follow the shape of the dose curve; as a rule, active = well fitted inhibition curve with a large enough effect; inconclusive = small, poorly fitted or top-dose-only effect, or another doubt; inactive = no such curve, though single readings can be large or run the other way. Potencies of inconclusive entries are doubtful fits and often do not repeat.
# Biological target: Vitamin D3 receptor (Homo sapiens) (UniProt P11473)
# Assay: Inhibitors of the vitamin D receptor (VDR): qHTS
# Settings: VDR-SRC2-3 peptide fluorescence polarization, 2 h; max response, negative = inhibition: hits give low values
# Method in brief: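 Compounds are added to VDR with labelled SRC2-3 coactivator peptide and held 2 h at room temperature. Inhibition of the VDR–peptide interaction is then read as a change in fluorescence polarization.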
# % is scaled to controls: 0 for no effect and ±100 for the full control effect; potency is read from the fitted curve at half-maximal effect.
SMILES,Potency,"max response, negative = inhibition"
COc1ccc2c(c1OC)C(Cc1ccccc1)N1CCc3cc4c(cc3C1=C2)OCO4 (stereo not given),active: 31.6 µM,
O=C1CC(c2ccccc2)=NN1c1ccc([N+](=O)[O-])cc1,"inconclusive: 89.1 µM [inhibitor, single point]",
COc1ccc(Cl)cc1NC(=S)Nc1ccccc1C,"inconclusive: 17.8 µM [inhibitor, single point]",
COC(=O)c1c(C)oc2c1cc(NS(=O)(=O)c1c(C)cc(C)cc1C)c1ccccc12,"inconclusive: 50.1 µM [inhibitor, partial curve, poor fit]",
CCOC(=O)Cn1c2ccc(F)cc2c2nc(C)sc21,"inconclusive: 15.8 µM [inhibitor, full curve, poor fit]",
COCC(=O)N1CCC[C@@]2(CCN(C(c3ccccc3)c3ccccc3)C2)C1,"inconclusive: 79.4 µM [inhibitor, partial curve, poor fit]",
O=C(CCS(=O)(=O)c1ccc(Br)cc1)NCc1ccc(F)cc1,"inconclusive: 79.4 µM [inhibitor, partial curve]",
Cc1ccc(N2C(=O)CSC2=S)cc1C,,inactive: 6.74%
Cn1c2ccccc2c(=O)c2c(=O)n(-c3ccccc3)c(-c3ccc(C(C)(C)C)cc3)nc21,"inconclusive: 100 µM [inhibitor, partial curve, poor fit]",
COc1cc(NC(=O)c2cc(OC)c(OC)c(OC)c2)cc(-n2cnnn2)c1,"inconclusive: 79.4 µM [inhibitor, partial curve, poor fit]",
FC(F)(F)c1ccccc1-c1cc(NCc2cccs2)ncn1,"inconclusive: 44.7 µM [inhibitor, partial curve, poor fit]",
O=C(NCCOc1ccccc1F)c1ccccc1SCc1ccc(F)cc1,"inconclusive: 89.1 µM [inhibitor, single point]",
Cc1noc(C)c1C(=O)N1CCC[C@@]2(CCN(Cc3cc(C(F)(F)F)cc(C(F)(F)F)c3)C2)C1,"inconclusive: 89.1 µM [inhibitor, single point]",
COc1cc(/C=C2\SC(=S)N(Nc3ncc(C(F)(F)F)cc3Cl)C2=O)ccc1O,"inconclusive: 79.4 µM [inhibitor, partial curve]",
COc1ccc(Br)cc1CNC(=O)CCC(=O)N1CCSc2ccccc21,,inactive: 5.5% and inactive: -7.97%
Cc1oc(-c2ccccc2Cl)nc1CN1CCCC1c1ccc(F)cc1 (stereo not given),,inactive: 14%
CCOC(=O)C1CCN(C(=O)C2CCCN(c3ncnc4c3nc3n4CCCCC3)C2)CC1 (stereo not given),,inactive: -12.7%
Cc1ccc(S(=O)(=O)NC(=NC(C)C)c2ccccc2)cc1,,inactive: 11.4%
Brc1ccc(C2Nc3cccc4cccc(c34)N2)s1,,inactive: -26.3%
COc1ccc(CN(Cc2ccc(C(=O)O)cc2)C(=S)Nc2ccccc2F)cc1OC,,inactive: -16.3%

# Exported as tab-separated lines: three of the compounds above
SMILES	Potency	max response, negative = inhibition
COCC(=O)N1CCC[C@@]2(CCN(C(c3ccccc3)c3ccccc3)C2)C1	inconclusive: 79.4 µM [inhibitor, partial curve, poor fit]	
Brc1ccc(C2Nc3cccc4cccc(c34)N2)s1		inactive: -26.3%
COc1ccc(CN(Cc2ccc(C(=O)O)cc2)C(=S)Nc2ccccc2F)cc1OC		inactive: -16.3%

# Additional compounds.

SMILES,Potency,"max response, negative = inhibition"
CCOC(=O)C1=C(C)OC(N)=C(C#N)C1c1ccsc1 (stereo not given),,inactive: 17.6%
CN(C)CCOC1c2ccccc2-c2ccccc21,"inconclusive: 89.1 µM [inhibitor, single point]",
O=S(=O)(c1ccc2oc(=S)[nH]c2c1)N1CCOCC1,"inconclusive: 50.1 µM [inhibitor, partial curve, poor fit]",
O=C(NCC1CCN(Cc2cccc(Cl)c2)CC1)Nc1ccc(Cl)cc1,"inconclusive: 79.4 µM [inhibitor, partial curve, poor fit]",
COC(=O)c1cc2ccsc2n1Cc1nc(-c2cccc(Cl)c2)oc1C,"inconclusive: 100 µM [inhibitor, single point]",
COc1ccc2c(=O)c(OC)c(-c3ccccc3)oc2c1,"inconclusive: 50.1 µM [inhibitor, partial curve, poor fit]",
Cc1ccc(NC(=O)Cn2c(=O)n(Cc3ccc4c(c3)OCO4)c(=O)c3ccc(C(=O)NC4CCCCC4)cc32)cc1,,inactive: 19.7%
COC(=O)c1sc(-c2ccc(Cl)cc2)cc1NC(=O)CSCC(=O)O,,inactive: -16.6%
O=C(O)c1cc(-c2ccc(Cl)cc2)n(-c2ccc(F)cc2)n1,"inconclusive: 89.1 µM [inhibitor, partial curve, poor fit]",
COc1cc(/C=C2/C(=N)N3N=C(C)SC3=NC2=O)ccc1OS(=O)(=O)c1ccc(C)cc1,,inactive: -9.62%
COc1ccccc1-c1nc(NCc2cnc(C)cn2)c2ccccc2n1,"inconclusive: 56.2 µM [inhibitor, single point]",
Cc1cc(NC(=O)CN(C)S(=O)(=O)c2ccc3c(c2)CCCC(=O)N3)ccc1Br,,inactive: -5.86%
O=C(Cn1cc(S(=O)(=O)c2ccc(F)cc2)c(=O)c2cc3c(cc21)OCO3)Nc1ccccc1,"inconclusive: 89.1 µM [inhibitor, partial curve, poor fit]",
O=C(O)c1cc(O)c2c(c1)[C@H]([C@H]1c3cc(C(=O)O)cc(O)c3C(=O)c3c(O[C@@H]4OC(CO)C(O)C(O)C4O)cccc31)c1cccc(O[C@@H]3OC(CO)C(O)C(O)C3O)c1C2=O (stereo not given in full),active: 39.8 µM,
O=C(CSc1ccccn1)c1ccc(F)cc1,"inconclusive: 50.1 µM [inhibitor, partial curve]",
COc1cccc(CN(C)C(=O)c2[nH]c(C)c(C(C)=O)c2C)c1OC,"inconclusive: 70.8 µM [inhibitor, partial curve]",
CCCCCCCCCCCCCCCCCCNc1ccn(C2OC(COP(=O)(O)OCC3OC(n4cc(F)c(=O)[nH]c4=O)CC3O)C(O)C2O)c(=O)n1 (stereo not given),"inconclusive: 56.2 µM [inhibitor, partial curve, poor fit]",
CN(C)/N=C/C=C1\CCC/C(=C/c2cccs2)C1=O,"inconclusive: 79.4 µM [inhibitor, partial curve, poor fit]",
Cc1cccc2c(N=O)c(O)[nH]c12,"inconclusive: 28.2 µM [inhibitor, partial curve, poor fit]",
C#CCOCCOCCOCCNc1nc(N2CCN(C(=O)[C@H](CCC(=O)O)n3cc([C@@H](N)CCCCN)nn3)CC2)nc(N2CCN(C(=O)[C@H](CCCCN)n3cc([C@@H](N)CC(N)=O)nn3)CC2)n1,,inactive: 6.68%
